According to paper PMC3565990:
No constants are given. Whether binding was seen depends on the method and setting. Binding seen in cells or lysates may run through a third protein. Sequences can lack the tags named with a protein.

Protein sequences, listed by entry. Tags and fused reporters are not part of them.
UniProt P29351: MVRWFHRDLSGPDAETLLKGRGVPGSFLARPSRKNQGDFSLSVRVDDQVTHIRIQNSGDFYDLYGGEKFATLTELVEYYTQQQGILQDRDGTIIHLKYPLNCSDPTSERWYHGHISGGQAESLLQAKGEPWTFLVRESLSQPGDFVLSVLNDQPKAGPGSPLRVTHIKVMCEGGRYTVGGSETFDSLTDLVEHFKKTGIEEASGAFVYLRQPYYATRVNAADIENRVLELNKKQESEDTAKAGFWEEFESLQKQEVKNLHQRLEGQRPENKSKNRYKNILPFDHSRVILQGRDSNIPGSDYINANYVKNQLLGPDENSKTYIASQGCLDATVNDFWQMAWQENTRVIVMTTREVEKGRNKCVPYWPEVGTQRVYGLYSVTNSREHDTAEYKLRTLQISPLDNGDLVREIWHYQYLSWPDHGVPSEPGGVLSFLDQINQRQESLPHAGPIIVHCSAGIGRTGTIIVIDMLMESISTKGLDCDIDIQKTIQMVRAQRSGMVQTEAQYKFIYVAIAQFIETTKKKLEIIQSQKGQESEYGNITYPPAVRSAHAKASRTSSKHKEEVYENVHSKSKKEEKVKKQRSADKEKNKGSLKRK

Target: T1, FLAG-tagged human CD72fl YF mutant (CD72flYF) (human) (UniProt P21854)
T1 sequence: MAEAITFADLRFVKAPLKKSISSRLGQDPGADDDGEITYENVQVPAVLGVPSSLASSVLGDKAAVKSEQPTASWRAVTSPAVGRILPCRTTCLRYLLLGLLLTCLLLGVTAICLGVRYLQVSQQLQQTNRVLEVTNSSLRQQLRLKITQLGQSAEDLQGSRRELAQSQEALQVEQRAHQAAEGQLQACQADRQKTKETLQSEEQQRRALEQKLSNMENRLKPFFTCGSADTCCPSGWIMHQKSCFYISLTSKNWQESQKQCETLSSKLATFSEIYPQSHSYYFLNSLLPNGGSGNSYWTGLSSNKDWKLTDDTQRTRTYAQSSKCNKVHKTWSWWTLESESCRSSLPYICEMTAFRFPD
Experiment: co-IP; K46μv transfectants stimulated with 0.2 μg/ml NP-BSA, lysed in Triton X-100 lysis buffer; FLAG-tagged CD72 immunoprecipitated with anti-FLAG Ab and protein G-Sepharose; Western blot with anti-SHP-1 Ab

Substance: Src homology 2 domain-containing protein tyrosine phosphatase-1 (SHP-1) (from UniProt P29351 1-595) (enzyme)
- binding: no binding
